# Hit rate of the full screen: of about 300,000 compounds, about 3,700 (1.2%) were called active. The shares of active, inactive and inconclusive entries below differ from those in the screen. The call rests on the fitted dose curve; tested in HEK293 cells. A potency beside an inconclusive call is a rough fit, not a confirmed value.
# Assay: qHTS for Inhibitors of binding or entry into cells for Lassa Virus; further: nearly all actives have a fitted effect of over 50% in size
# Conditions: Lassa virus pseudotype entry inhibition, cell reporter; activity change, negative = inhibition: at 37.9 µM (top of the series) unless noted
# On the % scale 0 is the no-effect control and ±100 the full control effect; potency means the concentration at half of the fitted maximal effect.
Structure (SMILES),"activity change, negative = inhibition",Potency
O=C1CC(c2ccc(F)cc2)Cc2nc(N3CCN(c4ccccc4)CC3)ncc21 (stereo not drawn),inactive: -1.19%,
CCOC(=O)C1=C(C)NC(C)=C(C(=O)OCC)C1c1ccc(O)cc1,,"inconclusive: 31.6 µM [inhibitor, single point]"
Cc1cc(C)c2c(n1)nn1c(C)c(CCC(=O)NCc3ccc(Cl)cc3)c(C)nc21,,"inconclusive: 35.5 µM [activator, partial curve, poor fit]"
Cc1ccc(N2C(=O)CC(Cc3ccc(Cl)cc3)C2=O)cc1 (stereo not drawn),inactive: 5.89%,
CN(C)S(=O)(=O)c1ccc(N2CCN(S(=O)(=O)c3ccc(F)cc3)CC2)c(Cl)c1,,"inconclusive: 6.51 µM [inhibitor, full curve]"
Cc1nc2ccc(NC(=O)Cc3cccc(F)c3)cc2s1,,"inconclusive: 22.4 µM [activator, partial curve, poor fit]"
COc1ccccc1OCC(=O)/C=C1/N(C)c2ccccc2C1(C)C,inactive: -24%,
COc1cccc(CNc2nc(C(F)(F)F)nc3ccccc23)c1,,"inconclusive: 29.1 µM [inhibitor, single point]"
Cc1ccc(C(=O)CSc2ncn[nH]2)cc1,,"inconclusive: 23.1 µM [activator, single point]"
CC(CNC(=O)CCc1ccccc1)NC(=O)CCc1ccccc1 (stereo not drawn),inactive: -1.32%,
CC(=O)NC1(C(F)(F)F)NC(=O)N(C2CCCCC2)C1=O (stereo not drawn),inactive: 1.56%,
O=C(/C=C/c1ccccc1)CC(=O)c1ccccc1,,"inconclusive: 1.12 µM [inhibitor, single point]"
CNS(=O)(=O)c1ccc(NC(=O)Nc2ccc3c(c2)OCO3)cc1,,"inconclusive: 35.5 µM [inhibitor, single point]"
CCOCCn1ccc2c(OCC(=O)Nc3cc(OC)ccc3OC)cccc2c1=O,,"inconclusive: 1.41 µM [inhibitor, full curve, poor fit]"
CN(C(=O)c1cc2c(=O)n3ccccc3nc2n1C)c1ccccc1,inactive: 0.672% [at 46.1 µM],
CCOC(=O)c1cnc2c(-c3ccccc3)cnn2c1N,,"inconclusive: 32.6 µM [inhibitor, partial curve, poor fit]"
Cc1ccc(NC(=O)CSCc2c(C)noc2C)cc1C,,"inconclusive: 20.6 µM [inhibitor, single point]"
CCOC(=O)N1CCC(NC(=O)C2CCCN(S(=O)(=O)c3ccc4c(c3)oc(=O)n4C)C2)CC1 (stereo not drawn),inactive: -15.7%,
CCOC(=O)N1CCC(NC(=O)c2ccc3c(c2)N(Cc2cc(C)ccc2C)C(=O)c2ccccc2S3=O)CC1 (stereo not drawn),,"inconclusive: 1 µM [inhibitor, full curve, poor fit]"
CC1CCN(c2nc3c(c(=O)n(C)c(=O)n3C)n2Cc2ccccc2)CC1,,active: 7.3 µM
CCOC(=O)c1c(NC(=O)/C=C\C(=O)O)sc(C)c1-c1ccccc1,inactive: -12.9%,
O=C(NCCc1cccc(C(F)(F)F)c1)C1CCC(=O)N(C2CC2)C1 (stereo not drawn),,"inconclusive: 2.82 µM [activator, full curve, poor fit]"

Structure (SMILES),"activity change, negative = inhibition",Potency
Cn1ncc(Cl)c1C(=O)N1CCN(C23CC4CC(CC(C4)C2)C3)CC1,,"inconclusive: 35.5 µM [inhibitor, single point]"
CC(C)(CN1CCCC1)NS(=O)(=O)c1ccc(Cl)cc1,,"inconclusive: 10 µM [activator, partial curve, poor fit]"
COc1ccc(CCNC(=O)CCn2c(=O)c3cccn3c3cccnc32)c(OC)c1OC,inactive: 13.6% [at 46.1 µM],
COCCNCCCOc1ccc(C(C)(C)c2ccccc2)cc1,,"inconclusive: 12.6 µM [activator, single point]"
COc1cccc(NC(=O)c2nn(C34CC5CC(CC(C5)C3)C4)cc2[N+](=O)[O-])c1,,"inconclusive: 11.2 µM [inhibitor, partial curve, poor fit]"
COc1cccc(-c2nc3ccc(C(=O)N4CCCC(O)C4)cc3o2)c1 (stereo not drawn),,"inconclusive: 11.2 µM [inhibitor, partial curve]"
O=C(OCn1ncc(Cl)c(Cl)c1=O)c1ccccc1Cl,,active: 6.51 µM
COc1ccccc1Nc1nc(NCc2ccco2)c2ccccc2n1,inactive: -20.1%,
CCOc1ccc(CCNC(=O)CN2C(=O)c3cccnc3Oc3ccc(Cl)cc32)cc1,,"inconclusive: 22.4 µM [inhibitor, single point]"
CC(C)CC[n+]1ccn(C2=C([O-])c3ccccc3C(=O)/C2=N\S(=O)(=O)c2ccccc2)c1,,"inconclusive: 29.1 µM [inhibitor, single point]"
Cc1ccc(C)c(CN2C(=O)c3ccccc3Sc3ccc(C(=O)N4CCC5(CC4)OCCO5)cc32)c1,,"inconclusive: 3.55 µM [inhibitor, partial curve, poor fit]"
C/C(=N/NS(=O)(=O)c1cccc([N+](=O)[O-])c1)c1ccc2c(c1)OCO2,inactive: 16.7% [at 46.1 µM],
CCOC(=O)N1CCN(c2c(-c3ccccc3)c3cc(Cl)ccc3[nH]c2=O)CC1,,"inconclusive: 3.55 µM [inhibitor, single point]"
CC(=O)N1c2ccc(S(=O)(=O)N3CCCCCC3)cc2CC1C(=O)NCc1ccccc1F (stereo not drawn),,"inconclusive: 4.47 µM [inhibitor, single point]"
O=C(CCCOc1ccccc1)N1CCN(c2ccc(F)cc2)CC1,inactive: 18.3%,
COc1ccc(CNC(=O)Cn2nnc(-c3ccc(NC(=O)C4CCCCC4)cc3)n2)cc1,inactive: -11.5%,
CCOc1ccc(NC(=O)CSc2nc3[nH]ncc3c(=O)n2-c2ccccc2OC)cc1,,"inconclusive: 0.224 µM [inhibitor, full curve, poor fit]"
CS(=O)(=O)N1CCCC(C(=O)NCCCN2CCC(Cc3ccccc3)CC2)C1 (stereo not drawn),,"inconclusive: 6.51 µM [inhibitor, single point]"
Cc1cccc(OC(=O)N2CCOCC2)c1,,"inconclusive: 6.51 µM [inhibitor, single point]"
CN(/N=C/c1cc(Br)cc(Br)c1O)c1cccc(C(F)(F)F)n1,,"inconclusive: 17.8 µM [inhibitor, partial curve]"
O=C(NC1CC1)c1cccc(NC(=O)c2cnn(-c3ccccc3)n2)c1,,"inconclusive: 15.8 µM [inhibitor, single point]"

# Rewritten tab-delimited: part of the list above.
Structure (SMILES)	activity change, negative = inhibition	Potency
COc1cccc(CNc2nc(C(F)(F)F)nc3ccccc23)c1		inconclusive: 29.1 µM [inhibitor, single point]
Cc1ccc(C(=O)CSc2ncn[nH]2)cc1		inconclusive: 23.1 µM [activator, single point]
CC(CNC(=O)CCc1ccccc1)NC(=O)CCc1ccccc1 (stereo not drawn)	inactive: -1.32%	
